Experimental data as given in the supplement of paper PMC10849652.
The list shows a part of the results.

The chains behind the UniProt entries cited, without tags or fusion partners. Where a name states a change or a piece, a line headed by the entry shows the natural chain unless it says otherwise.
UniProt O75808: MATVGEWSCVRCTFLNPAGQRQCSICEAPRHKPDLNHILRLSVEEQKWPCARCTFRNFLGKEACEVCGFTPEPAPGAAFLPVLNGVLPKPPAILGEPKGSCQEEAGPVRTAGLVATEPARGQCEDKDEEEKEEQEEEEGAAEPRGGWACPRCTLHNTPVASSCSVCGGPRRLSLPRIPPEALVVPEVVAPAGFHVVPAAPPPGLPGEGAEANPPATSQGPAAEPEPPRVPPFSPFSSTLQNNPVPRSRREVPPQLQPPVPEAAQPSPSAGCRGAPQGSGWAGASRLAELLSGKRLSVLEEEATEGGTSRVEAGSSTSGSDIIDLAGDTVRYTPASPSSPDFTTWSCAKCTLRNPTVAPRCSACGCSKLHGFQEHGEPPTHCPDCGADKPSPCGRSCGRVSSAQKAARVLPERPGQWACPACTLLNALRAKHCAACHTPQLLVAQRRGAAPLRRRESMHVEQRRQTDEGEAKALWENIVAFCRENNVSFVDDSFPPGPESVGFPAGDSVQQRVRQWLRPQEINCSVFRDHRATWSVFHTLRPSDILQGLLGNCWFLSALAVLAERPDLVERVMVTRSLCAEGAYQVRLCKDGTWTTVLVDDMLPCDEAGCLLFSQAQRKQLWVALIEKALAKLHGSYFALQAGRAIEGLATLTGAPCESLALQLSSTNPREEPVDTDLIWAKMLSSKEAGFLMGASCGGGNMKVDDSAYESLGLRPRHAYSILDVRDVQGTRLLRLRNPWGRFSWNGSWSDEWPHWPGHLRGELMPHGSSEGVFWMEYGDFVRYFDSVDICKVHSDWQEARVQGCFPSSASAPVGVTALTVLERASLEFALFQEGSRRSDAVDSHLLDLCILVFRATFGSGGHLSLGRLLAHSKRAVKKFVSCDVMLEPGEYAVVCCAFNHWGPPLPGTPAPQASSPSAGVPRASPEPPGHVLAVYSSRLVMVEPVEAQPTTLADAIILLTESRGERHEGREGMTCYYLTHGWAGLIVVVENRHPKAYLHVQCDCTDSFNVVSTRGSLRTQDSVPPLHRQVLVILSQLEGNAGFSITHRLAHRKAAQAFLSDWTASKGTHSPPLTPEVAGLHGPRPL
UniProt Q14444, whole entry, looked up: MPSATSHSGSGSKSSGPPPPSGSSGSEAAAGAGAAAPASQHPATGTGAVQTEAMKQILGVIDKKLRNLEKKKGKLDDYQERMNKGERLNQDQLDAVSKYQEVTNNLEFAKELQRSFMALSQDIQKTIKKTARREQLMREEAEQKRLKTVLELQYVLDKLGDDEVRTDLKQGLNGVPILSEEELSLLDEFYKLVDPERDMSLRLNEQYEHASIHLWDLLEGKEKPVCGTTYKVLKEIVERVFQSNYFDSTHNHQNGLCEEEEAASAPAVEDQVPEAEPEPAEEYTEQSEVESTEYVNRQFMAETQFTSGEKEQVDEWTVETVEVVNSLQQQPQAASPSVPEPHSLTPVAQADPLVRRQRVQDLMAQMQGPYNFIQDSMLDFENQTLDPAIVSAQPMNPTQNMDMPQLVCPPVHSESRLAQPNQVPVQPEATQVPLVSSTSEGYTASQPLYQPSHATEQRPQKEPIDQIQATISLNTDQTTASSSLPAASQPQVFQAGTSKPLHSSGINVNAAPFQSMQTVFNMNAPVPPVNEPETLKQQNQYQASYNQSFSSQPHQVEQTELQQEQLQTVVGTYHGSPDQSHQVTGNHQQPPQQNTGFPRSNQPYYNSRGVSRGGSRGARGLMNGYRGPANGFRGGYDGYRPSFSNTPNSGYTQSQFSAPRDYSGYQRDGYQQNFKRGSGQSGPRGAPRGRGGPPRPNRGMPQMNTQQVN
UniProt Q96GQ5: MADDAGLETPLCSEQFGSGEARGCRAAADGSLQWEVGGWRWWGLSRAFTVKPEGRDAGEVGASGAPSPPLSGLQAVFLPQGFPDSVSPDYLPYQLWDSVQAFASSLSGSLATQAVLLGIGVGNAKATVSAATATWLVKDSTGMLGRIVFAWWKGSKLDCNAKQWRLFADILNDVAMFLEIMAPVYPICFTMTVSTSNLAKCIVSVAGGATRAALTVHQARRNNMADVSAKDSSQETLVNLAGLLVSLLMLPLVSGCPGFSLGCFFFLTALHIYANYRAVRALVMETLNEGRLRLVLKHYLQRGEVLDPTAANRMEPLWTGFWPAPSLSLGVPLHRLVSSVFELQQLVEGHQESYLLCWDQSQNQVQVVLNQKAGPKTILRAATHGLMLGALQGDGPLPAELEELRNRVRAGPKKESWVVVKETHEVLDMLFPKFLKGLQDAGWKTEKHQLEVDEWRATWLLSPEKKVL
UniProt Q8N1A6: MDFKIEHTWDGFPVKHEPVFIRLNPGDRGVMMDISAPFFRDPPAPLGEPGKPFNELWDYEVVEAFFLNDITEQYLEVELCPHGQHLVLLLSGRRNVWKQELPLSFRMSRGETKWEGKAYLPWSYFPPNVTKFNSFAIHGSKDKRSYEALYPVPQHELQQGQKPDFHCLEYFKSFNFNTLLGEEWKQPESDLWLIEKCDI
UniProt Q5BKX5: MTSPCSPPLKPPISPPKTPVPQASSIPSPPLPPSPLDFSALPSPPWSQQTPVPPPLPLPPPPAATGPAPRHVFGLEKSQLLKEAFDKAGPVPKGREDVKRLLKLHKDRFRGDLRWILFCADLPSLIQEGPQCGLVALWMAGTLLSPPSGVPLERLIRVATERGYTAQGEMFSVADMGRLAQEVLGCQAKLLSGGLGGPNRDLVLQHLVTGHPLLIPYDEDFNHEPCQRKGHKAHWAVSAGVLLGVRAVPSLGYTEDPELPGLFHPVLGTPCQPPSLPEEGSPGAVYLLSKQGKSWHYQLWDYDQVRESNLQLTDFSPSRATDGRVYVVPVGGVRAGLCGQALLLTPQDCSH
UniProt Q9HAS0: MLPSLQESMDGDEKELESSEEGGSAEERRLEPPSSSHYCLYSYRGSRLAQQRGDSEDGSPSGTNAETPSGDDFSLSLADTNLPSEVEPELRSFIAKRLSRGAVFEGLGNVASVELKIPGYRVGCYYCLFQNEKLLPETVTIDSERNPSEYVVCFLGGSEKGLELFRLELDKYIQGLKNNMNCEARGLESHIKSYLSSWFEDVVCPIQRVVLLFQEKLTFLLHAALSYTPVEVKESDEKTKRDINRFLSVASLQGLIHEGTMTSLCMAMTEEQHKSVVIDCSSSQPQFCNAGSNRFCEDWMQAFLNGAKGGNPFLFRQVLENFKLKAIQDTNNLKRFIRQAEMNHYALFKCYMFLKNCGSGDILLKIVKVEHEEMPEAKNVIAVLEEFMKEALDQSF
UniProt Q9H425: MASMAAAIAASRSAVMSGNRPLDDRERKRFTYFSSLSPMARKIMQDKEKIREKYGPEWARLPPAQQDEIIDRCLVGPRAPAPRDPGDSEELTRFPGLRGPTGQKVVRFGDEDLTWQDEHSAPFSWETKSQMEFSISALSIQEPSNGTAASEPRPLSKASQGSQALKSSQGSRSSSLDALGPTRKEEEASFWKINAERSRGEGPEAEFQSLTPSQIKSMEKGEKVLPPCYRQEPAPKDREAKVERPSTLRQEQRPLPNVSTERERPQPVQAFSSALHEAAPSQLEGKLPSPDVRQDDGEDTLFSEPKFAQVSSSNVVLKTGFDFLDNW
UniProt O60566, whole entry, looked up: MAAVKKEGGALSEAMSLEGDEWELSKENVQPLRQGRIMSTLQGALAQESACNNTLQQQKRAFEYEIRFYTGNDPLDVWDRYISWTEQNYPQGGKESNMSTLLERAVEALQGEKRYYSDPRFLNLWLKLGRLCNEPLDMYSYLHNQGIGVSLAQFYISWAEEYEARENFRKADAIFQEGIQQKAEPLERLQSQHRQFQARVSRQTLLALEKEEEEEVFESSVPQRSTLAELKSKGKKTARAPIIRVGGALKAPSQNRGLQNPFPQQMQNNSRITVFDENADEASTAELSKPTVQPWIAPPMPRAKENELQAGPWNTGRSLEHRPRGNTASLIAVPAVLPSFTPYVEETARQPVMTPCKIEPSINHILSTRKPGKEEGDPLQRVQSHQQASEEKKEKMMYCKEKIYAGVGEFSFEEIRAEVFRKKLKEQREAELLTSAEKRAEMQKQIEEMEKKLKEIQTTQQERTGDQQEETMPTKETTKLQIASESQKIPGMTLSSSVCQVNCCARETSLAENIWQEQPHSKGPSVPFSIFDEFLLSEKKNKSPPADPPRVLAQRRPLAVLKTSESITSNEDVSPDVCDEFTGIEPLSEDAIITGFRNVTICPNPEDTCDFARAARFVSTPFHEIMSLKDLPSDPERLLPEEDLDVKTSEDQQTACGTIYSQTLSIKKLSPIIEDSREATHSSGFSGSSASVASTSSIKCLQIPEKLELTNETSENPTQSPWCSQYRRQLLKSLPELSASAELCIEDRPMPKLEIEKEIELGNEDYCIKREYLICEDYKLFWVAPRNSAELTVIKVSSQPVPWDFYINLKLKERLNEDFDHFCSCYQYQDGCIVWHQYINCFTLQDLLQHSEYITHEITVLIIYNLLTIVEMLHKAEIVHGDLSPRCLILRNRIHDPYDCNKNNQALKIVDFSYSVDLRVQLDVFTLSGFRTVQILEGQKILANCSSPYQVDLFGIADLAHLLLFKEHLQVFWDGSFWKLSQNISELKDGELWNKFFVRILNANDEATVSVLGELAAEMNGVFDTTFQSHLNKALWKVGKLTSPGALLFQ
UniProt Q96EU7: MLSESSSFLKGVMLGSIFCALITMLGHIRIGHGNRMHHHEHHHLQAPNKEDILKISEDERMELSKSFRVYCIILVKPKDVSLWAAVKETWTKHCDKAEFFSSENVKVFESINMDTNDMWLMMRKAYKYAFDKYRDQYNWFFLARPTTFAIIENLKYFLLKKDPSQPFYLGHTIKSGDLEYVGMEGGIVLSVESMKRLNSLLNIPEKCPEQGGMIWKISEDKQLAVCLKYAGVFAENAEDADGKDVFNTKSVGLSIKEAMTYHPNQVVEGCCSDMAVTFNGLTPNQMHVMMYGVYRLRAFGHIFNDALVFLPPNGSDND
UniProt P04632: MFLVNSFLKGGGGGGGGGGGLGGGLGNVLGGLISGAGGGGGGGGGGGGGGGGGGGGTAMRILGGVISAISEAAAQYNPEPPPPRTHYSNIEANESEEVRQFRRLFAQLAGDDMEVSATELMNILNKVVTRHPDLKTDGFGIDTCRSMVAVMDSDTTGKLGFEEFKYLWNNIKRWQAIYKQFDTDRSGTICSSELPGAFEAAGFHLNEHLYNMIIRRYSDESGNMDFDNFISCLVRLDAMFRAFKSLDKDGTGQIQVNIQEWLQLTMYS
UniProt Q8TCD1: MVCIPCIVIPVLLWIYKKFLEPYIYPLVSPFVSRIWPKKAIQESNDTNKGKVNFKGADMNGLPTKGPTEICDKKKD
UniProt P22676: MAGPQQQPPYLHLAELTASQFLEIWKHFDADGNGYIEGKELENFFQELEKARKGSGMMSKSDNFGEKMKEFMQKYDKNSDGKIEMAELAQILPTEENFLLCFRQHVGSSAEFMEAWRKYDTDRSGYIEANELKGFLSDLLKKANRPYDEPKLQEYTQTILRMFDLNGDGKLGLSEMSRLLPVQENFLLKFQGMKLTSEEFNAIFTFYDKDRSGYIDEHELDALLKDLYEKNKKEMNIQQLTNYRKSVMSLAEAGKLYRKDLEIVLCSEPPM
UniProt Q9P1Z2: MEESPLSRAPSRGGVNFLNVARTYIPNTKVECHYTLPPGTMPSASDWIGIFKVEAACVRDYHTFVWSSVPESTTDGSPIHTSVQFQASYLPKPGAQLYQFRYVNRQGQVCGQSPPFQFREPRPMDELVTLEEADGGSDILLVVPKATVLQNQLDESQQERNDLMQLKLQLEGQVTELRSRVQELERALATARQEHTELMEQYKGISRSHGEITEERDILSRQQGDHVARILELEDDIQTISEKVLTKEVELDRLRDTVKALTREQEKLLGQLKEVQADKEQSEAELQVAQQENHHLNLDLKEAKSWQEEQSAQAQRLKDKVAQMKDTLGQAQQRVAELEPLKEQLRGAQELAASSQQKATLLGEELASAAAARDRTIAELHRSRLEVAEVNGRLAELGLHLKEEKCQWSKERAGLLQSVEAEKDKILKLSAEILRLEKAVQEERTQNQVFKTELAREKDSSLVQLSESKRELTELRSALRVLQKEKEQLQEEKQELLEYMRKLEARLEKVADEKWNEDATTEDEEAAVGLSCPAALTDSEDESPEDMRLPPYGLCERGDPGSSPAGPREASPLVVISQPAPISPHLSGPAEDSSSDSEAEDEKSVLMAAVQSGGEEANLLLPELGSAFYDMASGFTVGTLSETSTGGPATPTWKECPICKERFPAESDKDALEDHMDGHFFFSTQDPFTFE

Legend:
Experiment in all cases: log2 fold change, soluble protein after heating vs DMSO (PISA); higher = thermal stabilisation; K562 lysate, 10 uM; active = over 0.2 and 3.5 SD of the protein, either way, in both replicates (recomputed)
vemurafenib = compound: CCCS(=O)(=O)Nc1ccc(F)c(C(=O)c2c[nH]c3ncc(-c4ccc(Cl)cc4)cc23)c1F [vemurafenib]
Method in brief: (§1)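 Quantification was by TMTpro 16plex LC-MS/MS with equalised channel sums, applied to the supernatant after 21,000xg for 90 min. Samples were crude K562 extract at 1 mg/mL protein in PBS pH 7.4 with 1 mM MgCl2, treated with 10 μM compound for 30 min, heated for 3 min across 48°C-58°C, pooled and brought to 0.5% NP-40 at 4°C. Values are log-two fold changes in thermal stability relative to solvent controls, from duplicates.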

[1] = compound: CCCS(=O)(=O)Nc1ccc(F)c(C(=O)c2c[nH]c3ncc(Cl)cc23)c1F
Method in brief: as §1

barasertib = compound: CCN(CCCOc1ccc2c(Nc3cc(CC(=O)Nc4cccc(F)c4)[nH]n3)ncnc2c1)CCOP(=O)(O)O [barasertib]
Method in brief: as §1

[2] = compound: CC[C@@H]1C(=O)N(C)c2cnc(Nc3ccc(C(=O)NC4CCN(C)CC4)cc3OC)nc2N1C1CCCC1
Method in brief: as §1

volasertib = compound: CC[C@@H]1C(=O)N(C)c2cnc(Nc3ccc(C(=O)N[C@H]4CC[C@H](N5CCN(CC6CC6)CC5)CC4)cc3OC)nc2N1C(C)C [volasertib]
Method in brief: as §1

[3] = compound: CCn1c(C(=O)N(C2CC2)C2CC2)cc2c3c(ncn3C)c(Nc3cc(C)n(C)n3)nc21
Method in brief: as §1

[4] = compound: CCn1cc(-c2ccnc3[nH]c(-c4cccc(CN(C)C)c4)cc23)c(-c2ccc(NC(=O)N(C)C)cc2)n1
Method in brief: as §1

[5] = compound: CN1CCC(CNc2ccc3ncc(-c4cccc(OC(F)(F)F)c4)n3n2)CC1
Method in brief: as §1

saracatinib = compound: CN1CCN(CCOc2cc(OC3CCOCC3)c3c(Nc4c(Cl)ccc5c4OCO5)ncnc3c2)CC1 [saracatinib]
Method in brief: as §1

sotrastaurin = compound: CN1CCN(c2nc(C3=C(c4c[nH]c5ccccc45)C(=O)NC3=O)c3ccccc3n2)CC1 [sotrastaurin]
Method in brief: as §1

alvocidib = compound: CN1CC[C@H](c2c(O)cc(O)c3c(=O)cc(-c4ccccc4Cl)oc23)[C@H](O)C1 [alvocidib]
Method in brief: as §1

Tubastatin A = compound: CN1CCc2c(c3ccccc3n2Cc2ccc(C(=O)NO)cc2)C1 [Tubastatin A]
Method in brief: as §1

[6] = compound: CNC(=O)C1=CC=CC=C1NC2=NC(=NC=C2Cl)NC3=C(C=C(C=C3)N4CCOCC4)OC
Method in brief: as §1

defactinib = compound: CNC(=O)c1ccc(Nc2ncc(C(F)(F)F)c(NCc3nccnc3N(C)S(C)(=O)=O)n2)cc1 [defactinib]
Method in brief: as §1

[7] = compound: CNc1nc(-c2ccc3c(N)n[nH]c3c2)cc(N2C[C@@H](C(=O)NC3CCCCC3)CC[C@H]2C)n1
Method in brief: as §1

encorafenib = compound: COC(=O)N[C@@H](C)CNc1nccc(-c2cn(C(C)C)nc2-c2cc(Cl)cc(NS(C)(=O)=O)c2F)n1 [encorafenib]
Method in brief: as §1

[8] = compound: COC(=O)[C@H](CCSC)NC(=O)C1=C(C=C(C=C1)NC[C@H](CS)N)C2=CC=CC=C2
Method in brief: as §1

alisertib = compound: COc1cc(Nc2ncc3c(n2)-c2ccc(Cl)cc2C(c2c(F)cccc2OC)=NC3)ccc1C(=O)O [alisertib]
Method in brief: as §1

[9] = compound: COc1cc2nc(-c3cc(F)ccc3O)nc(N[C@@H]3CNC[C@H]3C(C)(C)O)c2cc1OC
Method in brief: as §1

gefitinib = compound: COc1cc2ncnc(Nc3ccc(F)c(Cl)c3)c2cc1OCCCN1CCOCC1 [gefitinib]
Method in brief: as §1

| Target | log2 fold change (vemurafenib) | log2 fold change [1] | log2 fold change (barasertib) | log2 fold change [2] | log2 fold change (volasertib) | log2 fold change [3] | log2 fold change [4] | log2 fold change [5] | log2 fold change (saracatinib) | log2 fold change (sotrastaurin) | log2 fold change (alvocidib) | log2 fold change (Tubastatin A) | log2 fold change [6] | log2 fold change (defactinib) | log2 fold change [7] | log2 fold change (encorafenib) | log2 fold change [8] | log2 fold change (alisertib) | log2 fold change [9] | log2 fold change (gefitinib) |
| --- | --- | --- | --- | --- | --- | --- | --- | --- | --- | --- | --- | --- | --- | --- | --- | --- | --- | --- | --- | --- |
| C2CD2L (UniProt O14523) | inactive: 0.118 | inactive: 0.044 | inactive: 0.008 | inactive: 0.156 | inactive: -0.055 | inactive: 0.033 | inactive: -0.022 | inactive: -0.027 | inactive: 0.034 | inactive: 0.034 | inactive: 0.002 | inactive: 0.011 | inactive: -0.074 | inactive: 0.015 | inactive: -0.062 | inactive: 0.055 | inactive: -0.221 | inactive: -0.036 | inactive: -0.013 | inactive: 0.016 |
| CAPN15 (UniProt O75808) | inactive: 0.04 | inactive: -0.046 | inactive: 0.077 | inactive: -0.007 | inactive: 0.027 | inactive: 0.013 | inactive: 0.037 | inactive: 0.016 | inactive: 0.032 | inactive: -0.091 | inactive: -0.01 | inactive: -0.043 | inactive: 0.001 | inactive: -0.014 | inactive: 0.19 | inactive: -0.029 | inactive: 0.03 | inactive: -0.03 | inactive: 0.024 | inactive: -0.024 |
| CAPRIN1 (UniProt Q14444) | inactive: -0.009 | inactive: -0.02 | inactive: -0.052 | inactive: 0.02 | inactive: 0.023 | inactive: -0.013 | inactive: 0.132 | inactive: -0.018 | inactive: -0.02 | inactive: -0.029 | inactive: 0.04 | inactive: 0.054 | inactive: -0.002 | inactive: -0.004 | inactive: 0.061 | inactive: -0.024 | inactive: 0.001 | inactive: 0.013 | inactive: -0.015 | inactive: -0.012 |
| C16orf58 (UniProt Q96GQ5) | inactive: -0.023 | inactive: 0.072 | inactive: 0.064 | inactive: -0.005 | inactive: 0.018 | inactive: -0.076 | inactive: 0.024 | inactive: -0.073 | inactive: 0.013 | inactive: -0.033 | inactive: 0 | inactive: 0.174 | inactive: -0.063 | inactive: 0.01 | inactive: 0.025 | inactive: 0.017 | inactive: 0.018 | inactive: -0.005 | inactive: -0.03 | inactive: 0.016 |
| C4orf33 (UniProt Q8N1A6) | inactive: -0.014 | inactive: -0.045 | inactive: 0.009 | inactive: -0.018 | inactive: 0.013 | inactive: -0.046 | inactive: -0.112 | inactive: 0.091 | inactive: -0.014 | inactive: 0.038 | inactive: -0.025 | inactive: 0.006 | inactive: 0.011 | inactive: 0.043 | inactive: 0 | inactive: 0.028 | inactive: -0.053 | inactive: -0.071 | inactive: 0 | inactive: -0.014 |
| C19orf54 (UniProt Q5BKX5) | inactive: 0.08 | inactive: -0.028 | inactive: 0.002 | inactive: -0.043 | inactive: -0.058 | inactive: -0.06 | inactive: 0.013 | inactive: 0.003 | inactive: -0.027 | inactive: -0.027 | inactive: -0.032 | inactive: 0.004 | inactive: 0.048 | inactive: -0.039 | inactive: 0.023 | inactive: 0.024 | inactive: 0.151 | inactive: -0.099 | inactive: 0.069 | inactive: 0.08 |
| C17orf75 (UniProt Q9HAS0) | inactive: 0.03 | inactive: 0.049 | inactive: 0.051 | inactive: -0.02 | inactive: -0.039 | inactive: 0.048 | inactive: -0.022 | inactive: 0.099 | inactive: 0.01 | inactive: -0.008 | inactive: -0.042 | inactive: -0.084 | inactive: 0.036 | inactive: -0.026 | inactive: -0.025 | inactive: 0.045 | inactive: 0.054 | inactive: -0.006 | inactive: -0.001 | inactive: 0.009 |
| C1orf198 (UniProt Q9H425) | inactive: 0.059 | inactive: 0.004 | inactive: -0.001 | inactive: 0.094 | inactive: 0.024 | inactive: 0.092 | inactive: -0.096 | inactive: 0.052 | inactive: -0.014 | inactive: 0.005 | inactive: -0.016 | inactive: 0.002 | inactive: 0.097 | inactive: -0.054 | inactive: -0.05 | inactive: 0.025 | inactive: -0.148 | inactive: 0.183 | inactive: 0.021 | inactive: 0.147 |
| BUB1B isoform 3 (UniProt O60566) | inactive: 0.024 | inactive: 0.024 | inactive: 0.03 | inactive: -0.012 | inactive: -0.014 | inactive: 0.01 | inactive: 0.13 | inactive: -0.05 | inactive: -0.006 | inactive: 0.009 | inactive: -0.032 | inactive: -0.122 | inactive: 0.018 | inactive: -0.012 | inactive: 0.018 | inactive: 0.033 | inactive: 0.018 | inactive: 0.002 | inactive: 0.011 | inactive: -0.005 |
| C1GALT1C1 (UniProt Q96EU7) | inactive: 0.022 | inactive: 0.003 | inactive: -0.01 | inactive: 0.044 | inactive: -0.046 | inactive: -0.094 | inactive: 0.038 | inactive: -0.144 | inactive: 0.042 | inactive: -0.02 | inactive: -0.048 | inactive: 0.078 | inactive: 0 | inactive: -0.027 | inactive: -0.017 | inactive: -0.004 | inactive: 0.006 | inactive: 0.043 | inactive: -0.076 | inactive: -0.023 |
| CAP1 (UniProt Q01518) | inactive: -0.027 | inactive: -0.005 | inactive: -0.022 | inactive: -0.006 | inactive: 0.004 | inactive: -0.019 | inactive: 0.022 | inactive: 0.008 | inactive: 0.016 | inactive: -0.021 | inactive: 0.02 | inactive: 0.042 | inactive: -0.019 | inactive: 0 | inactive: 0.085 | inactive: -0.029 | inactive: 0.02 | inactive: 0 | inactive: -0.003 | inactive: -0.038 |
| CAPNS1 (UniProt P04632) | inactive: -0.032 | inactive: 0.021 | inactive: 0.11 | inactive: -0.027 | inactive: 0.04 | inactive: -0.006 | active: -0.334 | inactive: 0.07 | inactive: 0.003 | inactive: -0.012 | inactive: 0.021 | inactive: -0.022 | inactive: 0.032 | inactive: 0.027 | inactive: -0.005 | inactive: 0.022 | inactive: -0.129 | inactive: -0.012 | inactive: -0.051 | inactive: -0.062 |
| C18orf32 (UniProt Q8TCD1) | inactive: 0.164 | inactive: -0.044 | inactive: -0.019 | inactive: 0.125 | inactive: 0.054 | inactive: 0.054 | inactive: -0.073 | inactive: 0 | inactive: 0.006 | inactive: -0.112 | inactive: 0.049 | inactive: 0.035 | inactive: 0.084 | inactive: 0.144 | inactive: 0 | inactive: 0.168 | inactive: -0.316 | inactive: 0.043 | inactive: -0.019 | inactive: -0.249 |
| CALB2 (UniProt P22676) | inactive: 0.064 | inactive: 0.046 | active: 0.375 | inactive: -0.036 | inactive: 0.017 | inactive: 0.023 | inactive: -0.065 | inactive: 0.066 | inactive: -0.008 | inactive: -0.061 | inactive: -0.028 | inactive: -0.022 | inactive: -0.028 | inactive: -0.062 | inactive: 0.034 | inactive: -0.014 | inactive: -0.003 | inactive: -0.008 | inactive: -0.01 | inactive: 0.112 |
| CALCOCO1 (UniProt Q9P1Z2) | inactive: 0.121 | inactive: 0.021 | inactive: 0.047 | inactive: -0.016 | inactive: -0.021 | inactive: 0.051 | inactive: -0.056 | inactive: 0.026 | inactive: 0.041 | inactive: -0.013 | inactive: 0.011 | inactive: -0.086 | inactive: 0.038 | inactive: -0.039 | inactive: 0 | inactive: 0.144 | inactive: 0.026 | inactive: -0.01 | inactive: -0.011 | inactive: 0.088 |
